Data published in patent publication US20100279318A1.
No constants are given. Whether binding was seen depends on the method and setting. Some entries that bind do so weakly or less than the wild type.

Key:
[1] = target: Dopamine D1 receptor fused to GFP (D1-GFP) (human; Aequoria victoria) (UniProt P21728+P42212); experiment: NLS co-trafficking assay, co-transfected HEK cells, confocal microscopy
[2] = target: D2 dopamine receptor fused to GFP (D2-GFP) (Aequoria victoria) (UniProt P14416+P42212); experiment: as above

binding [1]: binds
binding [2]: binds
Substance: Dopamine D1 receptor containing a NLS (D1-NLS) (from UniProt P21728 1-446)
